According to article PMC11157767 (Molecular Cancer, 2024):
The source gives many values for each of these; only a part stands here.

Tested on: TFG-MET allograft tumors
Experiment: RNA-sequencing, differential expression and GSEA of TFG-MET allograft tumors
Assay type: in vivo, mouse
Details: CAP.v.Veh
Protocol: Error bars display standard error of mean, statistical significance was determined using t-test analysis. (****;p<0.0001, ***;p<0.001, **;p<0.01, *;p<0.05). […] Each dot represents an individual replicate. Error bars display standard error of the mean.
Each dot represents one gene.

[1] = GOCC_CLATHRIN_COATED_VESICLE_MEMBRANE
[2] = GOCC_CLATHRIN_COAT_OF_COATED_PIT
[3] = GOCC_CLUSTER_OF_ACTIN_BASED_CELL_PROJECTIONS
[4] = GOCC_COLLAGEN_CONTAINING_EXTRACELLULAR_MATRIX
[5] = GOCC_COMPLEX_OF_COLLAGEN_TRIMERS
[6] = GOCC_CONDENSED_NUCLEAR_CHROMOSOME_KINETOCHORE
[7] = GOCC_COPII_COATED_ER_TO_GOLGI_TRANSPORT_VESICLE
[8] = GOCC_COPI_COATED_VESICLE_MEMBRANE
[9] = GOCC_CORTICAL_ACTIN_CYTOSKELETON
[10] = GOCC_CUL3_RING_UBIQUITIN_LIGASE_COMPLEX
[11] = GOCC_CUL4_RING_E3_UBIQUITIN_LIGASE_COMPLEX
[12] = GOCC_CULLIN_RING_UBIQUITIN_LIGASE_COMPLEX
[13] = GOCC_CYTOPLASMIC_DYNEIN_COMPLEX
[14] = GOCC_CYTOSOLIC_SMALL_RIBOSOMAL_SUBUNIT
[15] = GOCC_ENDOPLASMIC_RETICULUM_LUMEN
[16] = GOCC_ENDOPLASMIC_RETICULUM_PROTEIN_CONTAINING_COMPLEX

Work on CNC(=O)c1ccc(-c2cnc3ncc(Cc4ccc5ncccc5c4)n3n2)cc1F [Capmatinib] yielded an NES (GOCC_CENTRIOLE) of -1.216, an ES (GOCC_CHLORIDE_CHANNEL_COMPLEX) of -0.2836 and an NES (GOCC_CHLORIDE_CHANNEL_COMPLEX) of -0.9663. The ES (GOCC_CILIARY_BASE) was 0.2528, the NES (GOCC_CILIARY_BASE) was 0.961 and the ES (GOCC_CLATHRIN_COATED_PIT) was -0.2024. It also gave an NES (GOCC_CLATHRIN_COATED_PIT) of -0.7808, an ES [1] of 0.2155 and an NES [1] of 1.069. The ES [2] was 0.4212, the NES [2] was 1.37 and the ES (GOCC_CLATHRIN_VESICLE_COAT) was 0.3364. For the same compound, the NES (GOCC_CLATHRIN_VESICLE_COAT) was 1.242, the ES (GOCC_CLEAVAGE_FURROW) was -0.3471 and the NES (GOCC_CLEAVAGE_FURROW) was -1.262. It also gave an ES [3] of -0.237, an NES [3] of -1.007 and an ES [4] of 0.1866. The NES [4] was 1.106, the ES [5] was -0.2589 and the NES [5] was -0.7763. For the same compound, the ES [6] was -0.3515, the NES [6] was -0.9802 and the ES (GOCC_CONTRACTILE_FIBER) was -0.2072. The NES (GOCC_CONTRACTILE_FIBER) was -0.9191, the ES (GOCC_COP9_SIGNALOSOME) was -0.3469 and the NES (GOCC_COP9_SIGNALOSOME) was -1.155. For the same compound, the ES [7] was -0.2118, the NES [7] was -0.8428 and the ES (GOCC_COPII_VESICLE_COAT) was -0.4515. For the same compound, the NES (GOCC_COPII_VESICLE_COAT) was -1.232, the ES (GOCC_COPI_COATED_VESICLE) was -0.2642 and the NES (GOCC_COPI_COATED_VESICLE) was -0.8488. The ES [8] was -0.3401, the NES [8] was -0.9657 and the ES (GOCC_CORNIFIED_ENVELOPE) was 0.3443. For the same compound, the NES (GOCC_CORNIFIED_ENVELOPE) was 1.199, the ES [9] was 0.2476 and the NES [9] was 1.1733. For the same compound, the ES (GOCC_CORTICAL_CYTOSKELETON) was 0.2021, the NES (GOCC_CORTICAL_CYTOSKELETON) was 0.9922 and the ES (GOCC_COSTAMERE) was -0.2887. The NES (GOCC_COSTAMERE) was -0.8049, the ES [10] was -0.2931 and the NES [10] was -0.9884. For the same compound, the ES [11] was -0.3293, the NES [11] was -1.072 and the ES [12] was -0.24. It also gave an NES [12] of -1.027, an ES [13] of -0.2661 and an NES [13] of -0.767. It also gave an ES (GOCC_CYTOSOLIC_RIBOSOME) of -0.2925, an NES (GOCC_CYTOSOLIC_RIBOSOME) of -1.197 and an ES [14] of -0.3292. It also gave an NES [14] of -1.158, an ES (GOCC_DENDRITE_CYTOPLASM) of 0.2477 and an NES (GOCC_DENDRITE_CYTOPLASM) of 0.9538. For the same compound, the ES (GOCC_DENDRITE_MEMBRANE) was 0.196, the NES (GOCC_DENDRITE_MEMBRANE) was 0.8217 and the ES (GOCC_DENDRITIC_SPINE_MEMBRANE) was 0.3045. It also gave an NES (GOCC_DENDRITIC_SPINE_MEMBRANE) of 0.9565, an ES (GOCC_DENSE_CORE_GRANULE) of 0.3269 and an NES (GOCC_DENSE_CORE_GRANULE) of 1.223. For the same compound, the ES (GOCC_DNA_PACKAGING_COMPLEX) was -0.4035, the NES (GOCC_DNA_PACKAGING_COMPLEX) was -1.255 and the ES (GOCC_DYNEIN_COMPLEX) was 0.2821. The NES (GOCC_DYNEIN_COMPLEX) was 1.209, the ES (GOCC_EARLY_ENDOSOME) was 0.158 and the NES (GOCC_EARLY_ENDOSOME) was 0.9512. For the same compound, the ES (GOCC_EARLY_ENDOSOME_MEMBRANE) was -0.2466, the NES (GOCC_EARLY_ENDOSOME_MEMBRANE) was -1.063 and the ES (GOCC_ENDOCYTIC_VESICLE_LUMEN) was -0.3339. For the same compound, the NES (GOCC_ENDOCYTIC_VESICLE_LUMEN) was -0.9112, the ES (GOCC_ENDOPEPTIDASE_COMPLEX) was -0.1955 and the NES (GOCC_ENDOPEPTIDASE_COMPLEX) was -0.748. For the same compound, the ES [15] was -0.1806, the NES [15] was -0.8249 and the ES [16] was -0.1866. For the same compound, the NES [16] was -0.7871 and the ES (GOCC_ENDOPLASMIC_RETICULUM_QUALITY_CONTROL_COMPARTMENT) was 0.2788.
